Measurements reported in publication PMC4083437.
These are yes or no findings as the source states them, for the method shown. In cells and extracts the contact can be indirect. Some entries that bind do so weakly or less than the wild type. Values belong to the binder of their own block, whether it stands above or below them.

Tests used:
[1] = target: T1, TAF9B (mouse (endogenous in EB-MN from murine ES cells and in newborn mouse spinal column)) (UniProt Q6NZA9); assay: co-IP; nuclear extract of EB-MN differentiated for 8 days; 1 mg extract with antibodies (TAF9B or TBP) on protein A sepharose or protein G Dynabeads overnight at 4°C; washes with 300 mM KCl, 0.05% NP-40 and once with 100 mM KCl; Western blotting
T1 sequence: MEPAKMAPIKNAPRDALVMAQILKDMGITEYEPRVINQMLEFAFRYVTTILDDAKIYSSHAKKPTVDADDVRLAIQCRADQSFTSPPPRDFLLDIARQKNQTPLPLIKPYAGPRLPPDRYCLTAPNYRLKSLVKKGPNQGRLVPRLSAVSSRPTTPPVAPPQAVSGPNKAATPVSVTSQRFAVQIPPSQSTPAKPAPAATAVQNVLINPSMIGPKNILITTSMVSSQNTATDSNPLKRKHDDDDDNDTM

[2] = target: T2, TBP (mouse (endogenous in EB-MN from murine ES cells)) (UniProt P29037); assay: as above
T2 sequence: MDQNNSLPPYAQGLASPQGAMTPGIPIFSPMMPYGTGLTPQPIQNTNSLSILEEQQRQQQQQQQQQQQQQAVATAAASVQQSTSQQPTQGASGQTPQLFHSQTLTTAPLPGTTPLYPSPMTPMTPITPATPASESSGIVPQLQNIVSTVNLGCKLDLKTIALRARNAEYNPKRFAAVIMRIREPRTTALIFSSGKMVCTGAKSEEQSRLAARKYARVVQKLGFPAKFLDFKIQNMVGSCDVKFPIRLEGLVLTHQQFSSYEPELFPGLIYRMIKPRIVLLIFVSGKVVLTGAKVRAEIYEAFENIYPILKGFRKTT

- binding [1]: binds weakly
- binding [2]: binds
B1: TAF7 (protein, UniProt Q9R1C0 1-341)
chain: MSKNKDDAPHELESQFILRLPPEYAATVRRAVQSGHVNLKDKLSIELHPDGRHGIVRVDRVPLAAKLVDLPCVTESLKTIDKKTFYKTADISQMLVATVDGDLYPPVEEAAATADPKANKKKDKDKEKKFVWNHGITLPLKNVRKRRFRKTAKKKYIESPDVEKEVKRLLSTDAEAVSTRWEIIAEDETKETENQGLDISSPGMSGHRQGHDSLEHDELREIFNDLSSSSEDEEDVNILDTEEDLERQLQDKLNESDEQHQENEGTNQLVMGIQKQIDNMKGKLQETQDRAKRQEDLIMKVENLALKNRFQAVLDELKQKEDREKEQLSSLQEELESLLEK

- binding [1]: binds weakly
- binding [2]: binds
B2: TAF4 (protein, UniProt E9QAP7 1-1042)
chain: MAAGSDLLDEVFFNSEVDEKVVSDLVGSLESQLAASAAHHHHLAPRTPELRAAAAGALGNHVVSGSPAGAAGAGPAASAEGAPAAAPEPPPAGRARPAGGGPRRPGSSSPRRLLVPAGPAPAPAKLRPLPEASAGPCPAAAAAAAATAAAVAGPDPAAAAPPAGPGASKPGPPGPPGPGAAQTLNGSAAPPTAPHAAPAVSPVNNGPAPPPAAGSVIQAAPAPAAPSPPAAPAPAAPPPPAPPAPVAPARPPGHPAAPAPPVSPAAAAAAAAAAAAAQNGAAPAPAAASGGAAGLGQPGAGAQGAKAEAPKPGPGPGPGPAAAAAAAGVAGGGAAGSVLLGPAMPGALPGPAPGTPAGLAKGAAAATPSLPRTPAATTGAIRATLTPTVLAPRLPQPPQNPTNIQNFQLPPGMVLVRSENGQLLMIPQQALAQMQAHAQAQPQSTMAPRPATPTGAPPVQISTVQAPGTPIIARQVTPTTIIKQVSQAQTTVQPTTTLQRSPGVQPQLVLGGSAQPASLGTATAVQTGTPQRTVPGASTTSTAATETMENVKKCKSFLSTLIKLASSGKQSTETAANVKDLVQNLLDGKIEAEDFTSRLYRELNSSPQPYLVPFLKRSLPALRQLTPDSAAFIQQSQQQQPPASQATTALTAVVLSSSVQRTAGKTAASVTSALQPPVISLTQPTQVGVGKQAPPTPLVIQQPPKPGALIRPPQVTLTQTPMVALRQPHNRIMLTTPQQIQLNQLQPVPVVKPTVLPGTKALSTVSAQAAAAQKNKLKEPGGGSFRDDDDINDVASMAGVNLSEESARILATNSELVGTLTRSCKDDTFLLPAPLQRRILEIGKKHGITELHPDVVSYVSHATQQRLQNLVEKISETAQQKNFSYKDDDRYEQASDVRAQLKFFEQLDQIEKQRKDEQEREILMRAAKSRSRQEDPEQLRLKQKAKEMQQQELAQMRQRDANLTALAAIGPRKKRKVDCTGPGSGAEGSGPGAAVPGGSGVGTPRQFTRQRITRVNLRDLIFCLENERETSHSLLLYKAFLK
